{
  "source": "the supplement of paper PMC9433722",
  "note": "Structures can show the parent of a compound that is named as a salt. The list shows a part of the results. Single values are uncertain, as repeats are few or missing.",
  "data": [
    {"tested_on": "Saos-2", "assay": "cell viability (CCK-8) relative to DMSO control (% of control); higher = less cytotoxic", "settings": "10 µM; 48 h", "values": [
      {"smiles": "Cc1cnc(C(=O)NCCc2ccc(S(=O)(=O)NC(=O)NC3CCCCC3)cc2)cn1", "note": "[Glipizide]", "cell viability": 63.3},
      {"smiles": "CC(C)NCC(O)c1ccc(NS(C)(=O)=O)cc1", "note": "(centres undefined) [Sotalol·HCl]", "cell viability": 65.1},
      {"smiles": "CNC[C@H](O)c1cccc(O)c1", "note": "[Phenylephrine]", "cell viability": 88.9},
      {"smiles": "CC(=O)O[C@H]1C[C@@H]2CC[C@@H]3[C@H](CC[C@@]4(C)[C@H]3C[C@H]([N+]3(C)CCCCC3)[C@@H]4OC(C)=O)[C@@]2(C)C[C@@H]1N1CCCCC1", "note": "[Vecuronium Bromide]", "cell viability": 59.7},
      {"smiles": "NC(=O)c1ncn([C@@H]2O[C@H](CO)[C@@H](O)[C@H]2O)n1", "note": "[Ribavirin]", "cell viability": 66.5},
      {"smiles": "CC(=O)O[C@]1(C(C)=O)CC[C@H]2[C@@H]3C=C(C)C4=CC(=O)CC[C@]4(C)[C@H]3CC[C@@]21C", "note": "[Megestrol Acetate]", "cell viability": 67.9},
      {"smiles": "CC12CC3CC(C)(C1)CC(N)(C3)C2", "note": "[Memantine . hydrochloride]", "cell viability": 60.5},
      {"smiles": "COc1cc2nc(N3CCN(C(=O)C4CCCO4)CC3)nc(N)c2cc1OC", "note": "(centres undefined) [Terazosin·HCl]", "cell viability": 62.6},
      {"smiles": "CC(C)OC(=O)CCC/C=C\\C[C@@H]1[C@@H](/C=C/[C@@H](O)COc2cccc(C(F)(F)F)c2)[C@H](O)C[C@@H]1O", "note": "[Travoprost]", "cell viability": 104},
      {"smiles": "O=C(O)c1cc(-c2ccc(F)cc2F)ccc1O", "note": "[Diflunisal]", "cell viability": 71.4},
      {"smiles": "C[C@]12CC[C@@H]3c4ccc(O)cc4C[C@@H](CCCCCCCCC[S+]([O-])CCCC(F)(F)C(F)(F)F)[C@H]3[C@@H]1CC[C@@H]2O", "note": "(some centres undefined) [Fulvestrant]", "cell viability": 66.6}
    ]},
    {"tested_on": "U2OS", "assay": "cell viability (CCK-8) relative to DMSO control (% of control); higher = less cytotoxic", "settings": "10 µM; 48 h", "values": [
      {"smiles": "CN(C/C=C/c1ccccc1)Cc1cccc2ccccc12", "note": "[Naftifine·HCl]", "cell viability": 100},
      {"smiles": "COc1c(N2CCNC(C)C2)c(F)cc2c(=O)c(C(=O)O)cn(C3CC3)c12", "note": "(centres undefined) [Gatifloxacin]", "cell viability": 93.4},
      {"smiles": "CC(C)C[C@H](NC(=O)[C@@H](COC(C)(C)C)NC(=O)[C@H](Cc1ccc(O)cc1)NC(=O)[C@H](CO)NC(=O)[C@H](Cc1c[nH]c2ccccc12)NC(=O)[C@H](Cc1cnc[nH]1)NC(=O)[C@@H]1CCC(=O)N1)C(=O)N[C@@H](CCCNC(=N)N)C(=O)N1CCC[C@H]1C(=O)NNC(N)=O", "note": "[Goserelin Acetate]", "cell viability": 97.3},
      {"smiles": "CC(C)(C)NC(=O)[C@H]1CC[C@H]2[C@@H]3CC[C@H]4NC(=O)C=C[C@]4(C)[C@H]3CC[C@]12C", "note": "[Finasteride]", "cell viability": 101},
      {"smiles": "C[C@H](CCC(=O)O)[C@H]1CC[C@H]2[C@@H]3[C@H](O)C[C@@H]4C[C@H](O)CC[C@]4(C)[C@H]3CC[C@]12C", "note": "[Chenodeoxycholic Acid]", "cell viability": 51.8},
      {"smiles": "CC(=O)CCCCn1c(=O)c2c(ncn2C)n(C)c1=O", "note": "[Pentoxifylline]", "cell viability": 93.9},
      {"smiles": "OC[C@H]1O[C@@H](n2cnc3c2N=CNC[C@H]3O)C[C@@H]1O", "note": "[Pentostatin]", "cell viability": 107},
      {"smiles": "CC1=C(C/C=C(\\C)CCC[C@H](C)CCC[C@H](C)CCCC(C)C)C(=O)c2ccccc2C1=O", "note": "[Phytonadione]", "cell viability": 105},
      {"smiles": "Cc1cn(-c2cc(NC(=O)c3ccc(C)c(Nc4nccc(-c5cccnc5)n4)c3)cc(C(F)(F)F)c2)cn1", "note": "[Nilotinib]", "cell viability": 97.5},
      {"smiles": "CO/N=C(\\C(=O)N[C@@H]1C(=O)N2C(C(=O)[O-])=C(C[N+]3(C)CCCC3)CS[C@H]12)c1csc(N)n1", "note": "[Cefepime·2HCl Hydrate]", "cell viability": 95.7},
      {"smiles": "CCN(CC)CC(=O)Nc1c(C)cccc1C", "note": "[Lidocaine . hydrochloride . hydrate]", "cell viability": 105},
      {"smiles": "CO[C@H]1C[C@@H]2CC[C@@H](C)[C@@](O)(O2)C(=O)C(=O)N2CCCC[C@H]2C(=O)O[C@H]([C@H](C)C[C@@H]2CC[C@@H](OC(=O)C(C)(CO)CO)[C@H](OC)C2)CC(=O)[C@H](C)/C=C(\\C)[C@@H](O)[C@@H](OC)C(=O)[C@H](C)C[C@H](C)/C=C/C=C/C=C/1C", "note": "[Temsirolimus]", "cell viability": 53.1},
      {"smiles": "CC1(C)O[C@@H]2[C@@H](CO[C@@]3(COS(N)(=O)=O)OC(C)(C)O[C@@H]23)O1", "note": "[Topiramate]", "cell viability": 89.6},
      {"smiles": "CCNC(=O)CCC/C=C\\C[C@@H]1[C@@H](/C=C/[C@@H](O)CCc2ccccc2)[C@H](O)C[C@@H]1O", "note": "[Bimatoprost]", "cell viability": 106},
      {"smiles": "NC[C@H]1CC[C@H](C(=O)O)CC1", "note": "[Tranexamic Acid]", "cell viability": 96.5},
      {"smiles": "C#C[C@]1(O)CC[C@H]2[C@@H]3CCC4=CC(=O)CC[C@@H]4[C@H]3C(=C)C[C@@]21CC", "note": "[Etonogestrel]", "cell viability": 92.3},
      {"smiles": "CC(=O)NC[C@H]1CN(c2ccc(N3CCOCC3)c(F)c2)C(=O)O1", "note": "[Linezolid]", "cell viability": 110},
      {"smiles": "CCCc1nc2c(C)cc(-c3nc4ccccc4n3C)cc2n1Cc1ccc(-c2ccccc2C(=O)O)cc1", "note": "[Telmisartan]", "cell viability": 88.9},
      {"smiles": "NS(=O)(=O)c1cc2c(cc1C(F)(F)F)NC(Cc1ccccc1)NS2(=O)=O", "note": "(centres undefined) [Bendroflumethiazide]", "cell viability": 91.5},
      {"smiles": "CC(=O)Nc1c(I)c(NC(C)=O)c(I)c(C(=O)O)c1I", "note": "[Diatrizoate Meglumine]", "cell viability": 114},
      {"smiles": "CO[C@@]1(NC(=O)C2SC(=C(C(N)=O)C(=O)O)S2)C(=O)N2C(C(=O)O)=C(CSc3nnnn3C)CS[C@@H]21", "note": "(some centres undefined) [Cefotetan Disodium]", "cell viability": 68.9},
      {"smiles": "CC[C@]1(O)C[C@H]2CN(CCc3c([nH]c4ccccc34)[C@@](C(=O)OC)(c3cc4c(cc3OC)N(C=O)[C@H]3[C@@](O)(C(=O)OC)[C@H](OC(C)=O)[C@]5(CC)C=CCN6CC[C@]43[C@@H]65)C2)C1", "note": "[Vincristine Sulfate]", "cell viability": 67.6},
      {"smiles": "COCCOC(=O)C1=C(C)NC(C)=C(C(=O)OC(C)C)C1c1cccc([N+](=O)[O-])c1", "note": "(centres undefined) [Nimodipine]", "cell viability": 116},
      {"smiles": "C[C@@H](c1ncncc1F)[C@](O)(Cn1cncn1)c1ccc(F)cc1F", "note": "[Voriconazole]", "cell viability": 89.4},
      {"smiles": "COc1ccc2cc([C@H](C)C(=O)O)ccc2c1", "note": "[Naproxen]", "cell viability": 104},
      {"smiles": "CCCSc1ccc2[nH]c(NC(=O)OC)nc2c1", "note": "[Albendazole]", "cell viability": 74.9},
      {"smiles": "Cc1[nH]cnc1CN1CCc2c(c3ccccc3n2C)C1=O", "note": "[Alosetron·HCl]", "cell viability": 83.8},
      {"smiles": "Cc1cnc(C(=O)NCCc2ccc(S(=O)(=O)NC(=O)NC3CCCCC3)cc2)cn1", "note": "[Glipizide]", "cell viability": 109},
      {"smiles": "CC(C)NCC(O)c1ccc(NS(C)(=O)=O)cc1", "note": "(centres undefined) [Sotalol·HCl]", "cell viability": 118},
      {"smiles": "CNC[C@H](O)c1cccc(O)c1", "note": "[Phenylephrine]", "cell viability": 103},
      {"smiles": "CC(=O)O[C@H]1C[C@@H]2CC[C@@H]3[C@H](CC[C@@]4(C)[C@H]3C[C@H]([N+]3(C)CCCCC3)[C@@H]4OC(C)=O)[C@@]2(C)C[C@@H]1N1CCCCC1", "note": "[Vecuronium Bromide]", "cell viability": 97.8},
      {"smiles": "NC(=O)c1ncn([C@@H]2O[C@H](CO)[C@@H](O)[C@H]2O)n1", "note": "[Ribavirin]", "cell viability": 118},
      {"smiles": "CC(=O)O[C@]1(C(C)=O)CC[C@H]2[C@@H]3C=C(C)C4=CC(=O)CC[C@]4(C)[C@H]3CC[C@@]21C", "note": "[Megestrol Acetate]", "cell viability": 106},
      {"smiles": "CC12CC3CC(C)(C1)CC(N)(C3)C2", "note": "[Memantine . hydrochloride]", "cell viability": 108},
      {"smiles": "COc1cc2nc(N3CCN(C(=O)C4CCCO4)CC3)nc(N)c2cc1OC", "note": "(centres undefined) [Terazosin·HCl]", "cell viability": 106},
      {"smiles": "CC(C)OC(=O)CCC/C=C\\C[C@@H]1[C@@H](/C=C/[C@@H](O)COc2cccc(C(F)(F)F)c2)[C@H](O)C[C@@H]1O", "note": "[Travoprost]", "cell viability": 84.7},
      {"smiles": "O=C(O)c1cc(-c2ccc(F)cc2F)ccc1O", "note": "[Diflunisal]", "cell viability": 110},
      {"smiles": "C[C@]12CC[C@@H]3c4ccc(O)cc4C[C@@H](CCCCCCCCC[S+]([O-])CCCC(F)(F)C(F)(F)F)[C@H]3[C@@H]1CC[C@@H]2O", "note": "(some centres undefined) [Fulvestrant]", "cell viability": 104}
    ]}
  ]
}
